Measurements taken from patent publication US20260193326A1.
Substitutions are numbered along the chain they refer to. These are yes or no findings as the source states them, for the method shown. Binding can be weak; no strength is given.

B1: A4-H1 (VHH)
VHH: VQLVESGGGLVQPGGSLRLSCAASGRSFSINTMGWFRQAPGKGLEAVAIVTRGGSTYYADSVKGRFTISRDNSKNTLYLQMNSLRAEDTAVYYCHIDEVRQSSWTTSNIWGQGTLVTVSS
B2: A4-C3 (bispecific antibody)
chain: VQLQESGGGLVQPGGSLRLSCAASGSIFSINLMGWYRQAPGKQRELVATITRGGNTNYAGSVKGRFTISRDNAKNTVYLQMNSLRPEDTAVYYCHVDEVRQSSWTTSNLWGQGTQVTVSSGGGGSGGGGSGGGGSVQLQESGGGLVQPGGSLRLSCAASGSIFSINLMGWYRQAPGKQRELVATITRGGNTNYAGSVKGRFTISRDNAKNTVYLQMNSLRPEDTAVYYCHVDEVRQSSWTTSNLWGQGTQVTVSSGGGGSGGGGSGGGGSVQLQESGGGLVQPGGSLRLSCAASGSNFRINTMGWYRQAPGKQRELVATVTRGGSTNYADSVKGRFTISRDNPKDTVYLQMNSLRPEDTAVYYCHVDEVRESSWTTSNLWGQGTQVTVSS
B3: A4-C4 (bispecific antibody)
chain: VQLQESGGGLVQAGGSLRLSCAASGSRFSINTMGWYRQAPGKQREFVATVTRGGNTNYAESVKGRFTISRDNAKNTVYLQMNSLRPEDTAVYYCHVDEVRDSSWTTSNIWGQGTQVTVSSGGGGSGGGGSGGGGSVQLQESGGGLVQAGGSLRLSCAASGSRFSINTMGWYRQAPGKQREFVATVTRGGNTNYAESVKGRFTISRDNAKNTVYLQMNSLRPEDTAVYYCHVDEVRDSSWTTSNIWGQGTQVTVSSGGGGSGGGGSGGGGSVQLQESGGGLVQPGGSLRLSCAASGSNFRINTMGWYRQAPGKQRELVATVTRGGSTNYADSVKGRFTISRDNPKDTVYLQMNSLRPEDTAVYYCHVDEVRESSWTTSNLWGQGTQVTVSS
B4: A4-C1 (VHH)
chain: VQLQESGGGLVQPGGSLRLSCAASGSGFSINTMGWYRQAPGKQRELVATVTRDGSTNYADFVKGRFTISRDNAKNTVYLQMNSLRPEDTAVYYCHLDEVRESSWTTSNLWGQGTQVTVSSGGGGSGGGGSGGGGSVQLQESGGGLVQPGGSLRLSCAASGSGFSINTMGWYRQAPGKQRELVATVTRDGSTNYADFVKGRFTISRDNAKNTVYLQMNSLRPEDTAVYYCHLDEVRESSWTTSNLWGQGTQVTVSSGGGGSGGGGSGGGGSVQLQESGGGLVQPGGSLRLSCAASGSGFSINTMGWYRQAPGKQRELVATVTRDGSTNYADFVKGRFTISRDNAKNTVYLQMNSLRPEDTAVYYCHLDEVRESSWTTSNLWGQGTQVTVSS
B5: A4-B4 (bispecific antibody)
chain: VQLVESGGGLVQPGGSLRLSCAASGRSFSINTMGWFRQAPGKGLEAVAIVTRGGSTYYADSVKGRFTISRDNSKNTLYLQMNSLRAEDTAVYYCHIDEVRQSSWTTSNIWGQGTLVTVSSGGGGSGGGGSGGGGSVQLVESGGGLVQPGGSLRLSCAASGSIFSINLMGWFRQAPGKGLELVAIITPGGNTYYADSVKGRFTISRDNSKNTVYLQMNSLRAEDTAVYYCHVDEVRQSSWTTSNLWGQGTLVTVSS
B6: A4-D1 (VHH)
chain: VQLQESGGGLAQAGGSLRLSCAASGRGFSINTMGWYRQAPGKQRELVAAVTRGGTTNYADSVKGRFTISRDNAKNTVYLQMNSLRPEDTAVYYCHVDEVRQSSWTTSNLWGQGTQVTVSSGGGGSGGGGSGGGGSVQLQESGGGLAQAGGSLRLSCAASGRGFSINTMGWYRQAPGKQRELVAAVTRGGTTNYADSVKGRFTISRDNAKNTVYLQMNSLRPEDTAVYYCHVDEVRQSSWTTSNLWGQGTQVTVSSGGGGSGGGGSGGGGSVQLQESGGGLAQAGGSLRLSCAASGRGFSINTMGWYRQAPGKQRELVAAVTRGGTTNYADSVKGRFTISRDNAKNTVYLQMNSLRPEDTAVYYCHVDEVRQSSWTTSNLWGQGTQVTVSSGGGGSGGGGSGGGGSVQLQESGGGLAQAGGSLRLSCAASGRGFSINTMGWYRQAPGKQRELVAAVTRGGTTNYADSVKGRFTISRDNAKNTVYLQMNSLRPEDTAVYYCHVDEVRQSSWTTSNLWGQGTQVTVSS
B7: A4-D4 (VHH)
chain: B6 chain with A146V, A148P
B8: A4-D3 (VHH)
chain: B6 chain with A416V, A418P
B9: A4-D2 (VHH)
chain: B6 chain with A11V, A146V, A281V, A416V
B10: A4-C5 (bispecific antibody)
chain: VQLQESGGGLVQPGGSLRLSCAASGSNFRINTMGWYRQAPGKQRELVATVTRGGSTNYADSVKGRFTISRDNPKNTVYLQMNSLRPEDTAVYYCHVDEVRESSWTTSNLWGQGTQVTVSSGGGGSGGGGSGGGGSVQLQESGGGLVQPGGSLRLSCAASGSNFSINTMGWYRQAPGKQRELVATVTRGGDTNYADSVKGRFTISRDNAKNTVYLQMNSLRPEDTAVYYCHVDEIRESSWTTSNLWGQGTQVTVSSGGGGSGGGGSGGGGSVQLQESGGGLVQPGGSLRLSCAASGSNFRINTMGWYRQAPGKQRELVATVTRGGSTNYADSVKGRFTISRDNPKNTVYLQMNSLRPEDTAVYYCHVDEVRESSWTTSNLWGQGTQVTVSS
B11: A4-C6 (bispecific antibody)
chain: B10 chain with T49P, P73A, T184A, V185L, D190S, I234V, R299S, S325D, P343A, V369I
B12: A4-C9 (bispecific antibody)
chain: B10 chain with R29S, S55D, P73A, V99I, T184A, V185L, D190S, I234V, T319P, P343A
B13: A4-C8 (bispecific antibody)
chain: B10 chain with T49P, P73A, R299S, T319A, V320L, P343A
B14: A4-D5 (protein)
chain: VQLQESGGGLVQPGGSLRLSCVASGSSFSINTMGWYRRAPGKQRELVATVTRDGSTNYANSVKGRFTISRDNAKNTVYLQMNSLRPEDTAVYYCHVDEVRQSSWTTSNLWGQGTQVTVSSGGGGSGGGGSGGGGSVQLQESGGGLVQPGGSLRLSCVASGSSFSINTMGWYRRAPGKQRELVATVTRDGSTNYANSVKGRFTISRDNAKNTVYLQMNSLRPEDTAVYYCHVDEVRQSSWTTSNLWGQGTQVTVSSGGGGSGGGGSGGGGSVQLQESGGGLVQPGGSLRLSCVASGSSFSINTMGWYRQAPGKQRELVATVTRDGSTNYANSVKGRFTISRDNAKNTVYLQMNSLRPEDTAVYYCHVDEVRQSSWTTSNLWGQGTQVTVSSGGGGSGGGGSGGGGSVQLQESGGGLVQPGGSLRLSCVASGSSFSINTMGWYRRAPGKQRELVATVTRDGSTNYANSVKGRFTISRDNAKNTVYLQMNSLRPEDTAVYYCHVDEVRQSSWTTSNLWGQGTQVTVSS
B15: A4-C7 (bispecific antibody)
chain: VQLQESGGGLVQPGGSLRLSCAASGSNFSINTMGWYRQAPGKQRELVATVTRGGDTNYADSVKGRFTISRDNAKNTVYLQMNSLRPEDTAVYYCHVDEIRESSWTTSNLWGQGTQVTVSSGGGGSGGGGSGGGGSVQLQESGGGLVQPGGSLRLSCAASGSNFRINTMGWYRQAPGKQRELVAPVTRGGSTNYADSVKGRFTISRDNAKNTVYLQMNSLRPEDTAVYYCHVDEVRESSWTTSNLWGQGTQVTVSSGGGGSGGGGSGGGGSVQLQESGGGLVQPGGSLRLSCAASGSSFTINTMGWYRQAPGKQRELVAAVTRGGSTNYAGSVKGRFTISRDNAKNTIYLQMNSLRPEDTAVYYCHVDEIRQSSWTTSNLWGQGTQVTVSS
B16: A4-C2 (VHH)
chain: VQLQESGGGLVQPGGSLRLSCAASGSAFSINTMGWYRQAPGKQRELVASVTPGGSTNYADSVKGRFTISRDNAKNTIYLQMNSLRPEDTAVYYCHLDEVRESSWTTSNLWGQGTQVTVSSGGGGSGGGGSGGGGSVQLQESGGGLVQPGGSLRLSCAASGSAFSINTMGWYRQAPGKQRELVASVTPGGSTNYADSVKGRFTISRDNAKNTIYLQMNSLRPEDTAVYYCHLDEVRESSWTTSNLWGQGTQVTVSSGGGGSGGGGSGGGGSVQLQESGGGLVQPGGSLRLSCAASGSAFSINTMGWYRQAPGKQRELVASVTPGGSTNYADSVKGRFTISRDNAKNTIYLQMNSLRPEDTAVYYCHLDEVRESSWTTSNLWGQGTQVTVSS

molecular target: AAV8 (adeno-associated virus serotype 8 (AAV8)); assay: SPR, recombinant AAV particles amine-coupled to CM5 chip

| Binder | binding |
| --- | --- |
| B1 | binds |

molecular target: AAV9 (adeno-associated virus serotype 9 (AAV9)); assay: as above

| Binder | binding |
| --- | --- |
| B1 | binds |

molecular target: AAV5 (adeno-associated virus serotype 5 (AAV5)); assay: as above

| Binder | binding |
| --- | --- |
| B1 | binds |

molecular target: AAV8 (adeno-associated virus serotype 8 (AAV8)); assay: SPR, AAV amine-coupled to CM5 chip

| Binder | binding |
| --- | --- |
| B2 | binds |
| B3 | binds |
| B4 | binds |
| B5 | binds |
| B6 | binds |
| B7 | binds |
| B8 | binds |
| B9 | binds |
| B10 | binds |
| B11 | binds |
| B12 | binds |
| B13 | binds |
| B14 | binds |
| B15 | binds |
| B16 | binds |

molecular target: AAV9 (adeno-associated virus serotype 9 (AAV9)); assay: SPR, AAV amine-coupled to CM5 chip

| Binder | binding |
| --- | --- |
| B2 | binds |
| B3 | binds |
| B4 | binds |
| B5 | binds |
| B6 | binds |
| B7 | binds |
| B8 | binds |
| B9 | binds |
| B10 | binds |
| B11 | binds |
| B12 | binds |
| B13 | binds |
| B14 | binds |
| B15 | binds |
| B16 | binds |

molecular target: AAV5 (adeno-associated virus serotype 5 (AAV5)); assay: SPR, AAV amine-coupled to CM5 chip

| Binder | binding |
| --- | --- |
| B2 | binds |
| B3 | binds |
| B4 | binds |
| B5 | binds |
| B6 | binds |
| B7 | binds |
| B8 | binds |
| B9 | binds |
| B10 | binds |
| B11 | binds |
| B12 | binds |
| B13 | binds |
| B14 | binds |
| B15 | binds |
| B16 | binds |
